Not every detail of the peptide structures is certain; ends, links or a residue may be inferred. Residues, ends and D or L forms follow the SMILES beside them.
How the values were obtained:
TRPM2 channels [1] = target: T1, TRPM2 channels (Mus musculus, UniProt Q91YD4); experiment: 60 min tMCAO, total hemisphere infarct volume (TTC) in WT mice; assay type: in vivo; set-up: from tissue; host or cells: mouse brain in vivo; acute hippocampal/brain slices from mice
TRPM2 channels [2] = target: T1, TRPM2 channels; experiment: Hippocampal LTP (CA1 fEPSP after TBS) after CA/CPR, peptide given in vivo; set-up: from tissue; host or cells: mouse brain in vivo; acute hippocampal/brain slices from mice; species or system mice; settings: for LTP, slope of fEPSP after TBS (% of baseline): peptide 30 min post-CA; for LTP after delayed administration in vivo: 20 mg/kg 6 days after resuscitation, recorded 7 days post-CA/CPR
TRPM2 channels [3] = target: T1, TRPM2 channels; experiment: Controlled Cortical Impact traumatic brain injury, motor, memory and LTP; assay type: in vivo; set-up: from tissue; host or cells: mouse brain in vivo; acute hippocampal/brain slices from mice
[4] = injected immediately after TBI, 7 days after recovery

By UniProt entry, the sequences of proteins in these tests, tags left out. Where a name states a change or a piece, a line headed by the entry shows the natural chain unless it says otherwise.
UniProt Q91YD4: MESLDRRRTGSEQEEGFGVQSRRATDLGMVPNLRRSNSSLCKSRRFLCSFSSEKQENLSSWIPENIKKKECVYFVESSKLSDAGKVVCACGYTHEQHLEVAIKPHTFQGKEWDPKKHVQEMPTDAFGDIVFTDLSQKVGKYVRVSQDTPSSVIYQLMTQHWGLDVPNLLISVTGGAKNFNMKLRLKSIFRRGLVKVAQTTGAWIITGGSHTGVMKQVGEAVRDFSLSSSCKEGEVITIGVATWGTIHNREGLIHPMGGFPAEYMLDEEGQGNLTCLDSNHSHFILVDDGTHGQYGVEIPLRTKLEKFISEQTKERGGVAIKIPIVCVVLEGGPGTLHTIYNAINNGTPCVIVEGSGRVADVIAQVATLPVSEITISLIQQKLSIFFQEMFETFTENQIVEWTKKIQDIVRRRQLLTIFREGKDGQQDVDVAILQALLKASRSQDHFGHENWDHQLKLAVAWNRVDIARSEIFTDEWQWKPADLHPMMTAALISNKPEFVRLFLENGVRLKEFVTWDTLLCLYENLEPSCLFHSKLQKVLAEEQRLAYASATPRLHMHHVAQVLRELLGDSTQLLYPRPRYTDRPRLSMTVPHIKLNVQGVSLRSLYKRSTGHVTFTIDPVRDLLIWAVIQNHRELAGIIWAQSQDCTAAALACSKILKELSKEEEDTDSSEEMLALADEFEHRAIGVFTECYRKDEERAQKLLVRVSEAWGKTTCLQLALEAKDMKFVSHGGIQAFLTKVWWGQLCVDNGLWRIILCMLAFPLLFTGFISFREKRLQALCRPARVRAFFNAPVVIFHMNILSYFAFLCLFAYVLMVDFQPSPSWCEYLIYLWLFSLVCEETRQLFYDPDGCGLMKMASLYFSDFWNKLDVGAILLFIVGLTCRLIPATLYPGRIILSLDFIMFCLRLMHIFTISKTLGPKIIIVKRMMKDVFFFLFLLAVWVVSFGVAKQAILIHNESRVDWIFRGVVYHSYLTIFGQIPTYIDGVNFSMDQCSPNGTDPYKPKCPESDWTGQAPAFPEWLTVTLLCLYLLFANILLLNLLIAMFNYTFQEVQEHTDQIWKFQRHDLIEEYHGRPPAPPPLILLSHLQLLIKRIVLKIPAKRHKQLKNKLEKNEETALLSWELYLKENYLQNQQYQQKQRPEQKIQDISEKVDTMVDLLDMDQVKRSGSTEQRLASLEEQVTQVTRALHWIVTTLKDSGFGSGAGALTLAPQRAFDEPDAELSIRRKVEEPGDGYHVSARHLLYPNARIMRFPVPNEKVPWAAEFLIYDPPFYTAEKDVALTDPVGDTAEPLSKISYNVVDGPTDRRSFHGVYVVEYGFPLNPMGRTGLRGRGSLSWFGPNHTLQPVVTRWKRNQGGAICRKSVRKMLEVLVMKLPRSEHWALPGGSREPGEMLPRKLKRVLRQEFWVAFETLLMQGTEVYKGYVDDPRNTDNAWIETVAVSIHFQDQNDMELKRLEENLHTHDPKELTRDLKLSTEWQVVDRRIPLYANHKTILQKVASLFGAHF

Structure (SMILES): CSCC[C@H](NC(=O)[C@H](CCC(=O)O)NC(=O)CNC(=O)[C@@H]1CCCN1C(=O)[C@H](CCC(=O)O)NC(=O)[C@H](CCCNC(=N)N)NC(=O)[C@H](CO)NC(=O)CNC(=O)[C@H](CCCNC(=N)N)NC(=O)[C@H](CCCNC(=N)N)NC(=O)[C@H](CCCNC(=N)N)NC(=O)[C@H](CCC(N)=O)NC(=O)[C@H](CCCNC(=N)N)NC(=O)[C@H](CCCNC(=N)N)NC(=O)[C@H](CCCCN)NC(=O)[C@H](CCCCN)NC(=O)[C@H](CCCNC(=N)N)NC(=O)CNC(=O)[C@@H](N)Cc1ccc(O)cc1)C(=O)N[C@@H](CC(C)C)C(=O)N1CCC[C@H]1C(=O)N[C@@H](CCCNC(=N)N)C(=O)N[C@@H](CCCCN)C(=O)N[C@@H](CC(C)C)C(=O)N[C@@H](CCCCN)C(=O)N[C@@H](CCCNC(=N)N)C(=O)N[C@H](C(=O)N[C@@H](CC(C)C)C(=O)N[C@@H](CCCNC(=N)N)C(=O)N[C@@H](CCC(N)=O)C(=O)N[C@@H](CCC(=O)O)C(=O)N[C@@H](Cc1ccccc1)C(=O)N[C@@H](Cc1c[nH]c2ccccc12)C(=O)N[C@H](C(=O)O)C(C)C)C(C)C [tat-M2NX] (H-YGRKKRRQRRRGSREPGEMLPRKLKRVLRQEFWV-OH; N-terminus and C-terminus assumed)
- infarct volume (TRPM2 channels [1]; WT female mice, 20 mg/kg retro-orbital 20 min prior to occlusion, 24 h after reperfusion): 45.1±2.1%
- infarct volume (TRPM2 channels [1]; WT male mice, 20 mg/kg retro-orbital 20 min prior to occlusion, 24 h after reperfusion): 29.2±4.6%
- infarct volume (TRPM2 channels [1]; WT male mice, intravenous 3 hours post-reperfusion, 24 h): 28.3±13.5%
- infarct volume (TRPM2 channels [1]; WT male mice, intravenous 3 hours post-reperfusion, 96 h): 23.8±12.5%
- infarct volume (TRPM2 channels [1]; aged (18-20 month-old) female mice, 30 min after reperfusion, 24 hours later): 40.2±4.0%
- infarct volume (TRPM2 channels [1]; aged (18-20 month-old) male mice, 30 min after reperfusion, 24 hours later): 27.0±0.7%
- dose giving neuroprotection following MCAo (TRPM2 channels [1]; male mice, lower doses): ≤ 1 mg/kg
- LTP, slope of fEPSP after TBS (% of baseline) (TRPM2 channels [2]; 7 days after CA/CPR, male): 188.1±22.0%
- LTP, slope of fEPSP after TBS (% of baseline) (TRPM2 channels [2]; 30 days after CA/CPR, male): 184.0±13.8%
- LTP after delayed administration in vivo (TRPM2 channels [2]; female): 170±16%
- LTP after delayed administration in vivo (TRPM2 channels [2]; male): 171±11%
- TBI-induced LTP deficits (TRPM2 channels [3]; after TBI): reversed TBI-induced LTP deficits
- memory function (contextual fear conditioning) (TRPM2 channels [3]; [4]): improved memory function
- motor function (cylinder test) (TRPM2 channels [3]; [4]): improved motor function

Source: patent US10889625B2, “Peptide-based methods for treating neurological injury” (THE REGENTS OF THE UNIVERSITY OF COLORADO, a body corporate, priority 2016, dated 2021)
